Here are results for 1 substance from publication PMC11070408 (EJNMMI Radiopharmacy and Chemistry, 2024).

The star is where a group is joined. Benzoyl(2,3-diOH) = O=C(c1cccc(O)c1O)*

A short description of the data set: general procedure: peptide synthesis; Rink amide; DIC/HOBt. The following applies: conjugation step, overall from 3b.

As for “H-K(Benzoyl(2,3-diOH))K(Benzoyl(2,3-diOH))K(Benzoyl(2,3-diOH))K(Benzoyl(2,3-diOH))-NH2 (SMILES NC(=O)[C@H](CCCCNC(=O)c1cccc(O)c1O)NC(=O)[C@H](CCCCNC(=O)c1cccc(O)c1O)NC(=O)[C@H](CCCCNC(=O)c1cccc(O)c1O)NC(=O)[C@@H](N)CCCCNC(=O)c1cccc(O)c1O)”, the conjugation yield is 16% overall yield.
